{"source": "the supplement of paper PMC8728848", "binders": {"B1": {"name": "PX14343C-bfa-541-26-541 (Bacteroides fragilis) (protein)", "chain": "KAPLDEIADDSFWSDETLVKYYVNDLYSEISVDGLQLQENRSDNSVSAQRDKYRASWFKFNYDMVSASDPQDDDVWEDYYVKVRKCNRFFERIGTSTIEESEKSRLTGEVHFLRAMFYFEMVKRYGGVILLDKVLTMEDNWEIPRSSEKECYDFILEDLKKATEMLPASYGSREKGRATKGAAYALKSRVELYDKRYEDVIKSCAEVYKLGYELVDGTTPEKYRSIWWTTNKDNKEIIFDVQYKSPDVYNNMMVCNMVTYINDKYGDRGWGGLGPTQELIDAFEMADGTPATQYSQAPADQVFDINTCGIYEGREPRFYANIVFHGSQIFFNADKGAVTVDRYLMDTPDKGDGSLTGYNVWKWIDYDNYNYPYAGAGSPDFSTNWIILRYAEIYLNDAEARLETGDVEGARKAVNMIRQRVGLPDLTESDPEKLRELIRKERRIEFAFEEQRFYDVRRWKIGPETQTTLHGVRFVSPTEFKVTKTDIRTWNDRLYLTPVPHDEIVRSSVLKQNLGY"}}, "assay_in_all_cases": "glycan array binding signal (z-score within array); higher = stronger binding", "conditions_in_all_cases": "glycan notation: IUPAC condensed, linker removed", "key": {"[1]": {"biological_target": "Gal(b1-3)[Fuc(a1-4)]GlcNAc(b1-6)GalNAc", "how_it_was_run": "(§1)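 The binding signal is a Z-score computed within each array. Data were drawn from 3228 arrays in the Consortium for Functional Glycomics database, restricted to those with a known protein sequence. Scores were averaged over arrays of the same protein sequence at different concentrations or buffers, and over linkers, and negative values can be taken as non-binding.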"}, "[2]": {"biological_target": "Gal(b1-3)[GlcNAc(b1-6)]GalNAc", "how_it_was_run": "as §1"}, "[3]": {"biological_target": "Gal(b1-3)[Neu5Ac(a2-6)]GalNAc", "how_it_was_run": "as §1"}, "[4]": {"biological_target": "Gal(b1-3)[Neu5Ac(a2-6)]GlcNAc(b1-4)Gal(b1-4)Glc", "how_it_was_run": "as §1"}, "[5]": {"biological_target": "Gal(b1-3)[Neu5Ac(b2-6)]GalNAc", "how_it_was_run": "as §1"}, "Gal(b1-4)Gal": {"biological_target": "Gal(b1-4)Gal", "how_it_was_run": "as §1"}, "[6]": {"biological_target": "Gal(b1-4)GalNAc(a1-3)[Fuc(a1-2)]Gal(b1-4)GlcNAc", "how_it_was_run": "as §1"}, "[7]": {"biological_target": "Gal(b1-4)GalNAc(b1-3)[Fuc(a1-2)]Gal(b1-4)GlcNAc", "how_it_was_run": "as §1"}, "Gal(b1-4)Glc": {"biological_target": "Gal(b1-4)Glc", "how_it_was_run": "as §1"}, "Gal(b1-4)Glc6S": {"biological_target": "Gal(b1-4)Glc6S", "how_it_was_run": "as §1"}, "Gal(b1-4)GlcNAc": {"biological_target": "Gal(b1-4)GlcNAc", "how_it_was_run": "as §1"}, "[8]": {"biological_target": "Gal(b1-4)GlcNAc(a1-6)Gal(b1-4)GlcNAc", "how_it_was_run": "as §1"}, "Gal(b1-4)GlcNAc(b1-2)Man": {"biological_target": "Gal(b1-4)GlcNAc(b1-2)Man", "how_it_was_run": "as §1"}, "[9]": {"biological_target": "Gal(b1-4)GlcNAc(b1-2)Man(a1-3)Man(b1-4)GlcNAc(b1-4)GlcNAc", "how_it_was_run": "as §1"}, "[10]": {"biological_target": "Gal(b1-4)GlcNAc(b1-2)Man(a1-3)[Gal(b1-4)GlcNAc(b1-2)Man(a1-6)]Man(b1-4)GlcNAc(b1-4)GlcNAc", "how_it_was_run": "as §1"}, "[11]": {"biological_target": "Gal(b1-4)GlcNAc(b1-2)Man(a1-3)[Gal(b1-4)GlcNAc(b1-2)Man(a1-6)]Man(b1-4)GlcNAc(b1-4)[Fuc(a1-6)]GlcNAc", "how_it_was_run": "as §1"}, "[12]": {"biological_target": "Gal(b1-4)GlcNAc(b1-2)Man(a1-3)[Gal(b1-4)GlcNAc(b1-2)Man(a1-6)][Gal(b1-4)GlcNAc(b1-4)]Man(b1-4)GlcNAc(b1-4)[Fuc(a1-6)]GlcNAc", "how_it_was_run": "as §1"}, "[13]": {"biological_target": "Gal(b1-4)GlcNAc(b1-2)Man(a1-3)[Gal(b1-4)GlcNAc(b1-2)Man(a1-6)][GlcNAc(b1-4)]Man(b1-4)GlcNAc(b1-4)[Fuc(a1-6)]GlcNAc", "how_it_was_run": "as §1"}, "[14]": {"biological_target": "Gal(b1-4)GlcNAc(b1-2)Man(a1-3)[GlcNAc(b1-2)Man(a1-6)]Man(b1-4)GlcNAc(b1-4)GlcNAc", "how_it_was_run": "as §1"}, "[15]": {"biological_target": "Gal(b1-4)GlcNAc(b1-2)Man(a1-3)[GlcNAc(b1-4)][Gal(b1-4)GlcNAc(b1-2)Man(a1-6)]Man(b1-4)GlcNAc(b1-4)GlcNAc", "how_it_was_run": "as §1"}, "[16]": {"biological_target": "Gal(b1-4)GlcNAc(b1-2)Man(a1-3)[Man(a1-6)]Man(b1-4)GlcNAc(b1-4)GlcNAc", "how_it_was_run": "as §1"}, "[17]": {"biological_target": "Gal(b1-4)GlcNAc(b1-2)Man(a1-6)Man(b1-4)GlcNAc(b1-4)GlcNAc", "how_it_was_run": "as §1"}, "[18]": {"biological_target": "Gal(b1-4)GlcNAc(b1-2)Man(a1-6)[GlcNAc(b1-2)Man(a1-3)]Man(b1-4)GlcNAc(b1-4)GlcNAc", "how_it_was_run": "as §1"}, "[19]": {"biological_target": "Gal(b1-4)GlcNAc(b1-2)Man(a1-6)[Man(a1-3)]Man(b1-4)GlcNAc(b1-4)GlcNAc", "how_it_was_run": "as §1"}, "[20]": {"biological_target": "Gal(b1-4)GlcNAc(b1-2)[Gal(b1-4)GlcNAc(b1-4)]Man(a1-3)[Gal(b1-4)GlcNAc(b1-2)Man(a1-6)]Man(b1-4)GlcNAc(b1-4)GlcNAc", "how_it_was_run": "as §1"}, "[21]": {"biological_target": "Gal(b1-4)GlcNAc(b1-2)[Gal(b1-4)GlcNAc(b1-4)]Man(a1-3)[Gal(b1-4)GlcNAc(b1-2)[Gal(b1-4)GlcNAc(b1-6)]Man(a1-6)]Man(b1-4)GlcNAc(b1-4)GlcNAc", "how_it_was_run": "as §1"}, "[22]": {"biological_target": "Gal(b1-4)GlcNAc(b1-2)[Gal(b1-4)GlcNAc(b1-4)]Man(a1-3)[GlcNAc(b1-4)][Gal(b1-4)GlcNAc(b1-2)Man(a1-6)]Man(b1-4)GlcNAc(b1-4)GlcNAc", "how_it_was_run": "as §1"}, "[23]": {"biological_target": "Gal(b1-4)GlcNAc(b1-2)[Gal(b1-4)GlcNAc(b1-4)]Man(a1-3)[GlcNAc(b1-4)][Gal(b1-4)GlcNAc(b1-2)[Gal(b1-4)GlcNAc(b1-6)]Man(a1-6)]Man(b1-4)GlcNAc(b1-4)GlcNAc", "how_it_was_run": "as §1"}, "[24]": {"biological_target": "Gal(b1-4)GlcNAc(b1-2)[Gal(b1-4)GlcNAc(b1-6)]Man(a1-6)[Gal(b1-4)GlcNAc(b1-2)Man(a1-3)]Man(b1-4)GlcNAc(b1-4)GlcNAc", "how_it_was_run": "as §1"}, "[25]": {"biological_target": "Gal(b1-4)GlcNAc(b1-2)[Gal(b1-4)GlcNAc(b1-6)]Man(a1-6)[Gal(b1-4)GlcNAc(b1-2)Man(a1-3)]Man(b1-4)GlcNAc(b1-4)[Fuc(a1-6)]GlcNAc", "how_it_was_run": "as §1"}, "[26]": {"biological_target": "Gal(b1-4)GlcNAc(b1-2)[Gal(b1-4)GlcNAc(b1-6)]Man(a1-6)[GlcNAc(b1-4)][Gal(b1-4)GlcNAc(b1-2)Man(a1-3)]Man(b1-4)GlcNAc(b1-4)GlcNAc", "how_it_was_run": "as §1"}, "[27]": {"biological_target": "Gal(b1-4)GlcNAc(b1-2)[Gal(b1-4)GlcNAc(b1-6)]Man(a1-6)[GlcNAc(b1-4)][Gal(b1-4)GlcNAc(b1-2)[Gal(b1-4)GlcNAc(b1-4)]Man(a1-3)]Man(b1-4)GlcNAc(b1-4)[Fuc(a1-6)]GlcNAc", "how_it_was_run": "as §1"}, "[28]": {"biological_target": "Gal(b1-4)GlcNAc(b1-3)Gal(b1-3)GalNAc", "how_it_was_run": "as §1"}, "[29]": {"biological_target": "Gal(b1-4)GlcNAc(b1-3)Gal(b1-3)GlcNAc", "how_it_was_run": "as §1"}, "[30]": {"biological_target": "Gal(b1-4)GlcNAc(b1-3)Gal(b1-4)Glc", "how_it_was_run": "as §1"}, "[31]": {"biological_target": "Gal(b1-4)GlcNAc(b1-3)Gal(b1-4)GlcNAc", "how_it_was_run": "as §1"}, "[32]": {"biological_target": "Gal(b1-4)GlcNAc(b1-3)Gal(b1-4)GlcNAc(b1-2)Man(a1-3)[Gal(b1-4)GlcNAc(b1-3)Gal(b1-4)GlcNAc(b1-2)Man(a1-6)]Man(b1-4)GlcNAc(b1-4)GlcNAc", "how_it_was_run": "as §1"}, "[33]": {"biological_target": "Gal(b1-4)GlcNAc(b1-3)Gal(b1-4)GlcNAc(b1-2)Man(a1-3)[Gal(b1-4)GlcNAc(b1-3)Gal(b1-4)GlcNAc(b1-2)Man(a1-6)]Man(b1-4)GlcNAc(b1-4)[Fuc(a1-6)]GlcNAc", "how_it_was_run": "as §1"}}, "note": "The other results are listed elsewhere or left out."}
{"binder": "B1", "values": [{"measurement": "glycan array binding signal (z-score)", "setting": "[1]", "result": 0.909}, {"measurement": "glycan array binding signal (z-score)", "setting": "[2]", "result": 0.163}, {"measurement": "glycan array binding signal (z-score)", "setting": "[3]", "result": 1.66}, {"measurement": "glycan array binding signal (z-score)", "setting": "[4]", "result": -0.082}, {"measurement": "glycan array binding signal (z-score)", "setting": "[5]", "result": 1.61}, {"measurement": "glycan array binding signal (z-score)", "setting": "Gal(b1-4)Gal", "result": -0.343}, {"measurement": "glycan array binding signal (z-score)", "setting": "[6]", "result": 0.038}, {"measurement": "glycan array binding signal (z-score)", "setting": "[7]", "result": -0.908}, {"measurement": "glycan array binding signal (z-score)", "setting": "Gal(b1-4)Glc", "result": -0.347}, {"measurement": "glycan array binding signal (z-score)", "setting": "Gal(b1-4)Glc6S", "result": 0.195}, {"measurement": "glycan array binding signal (z-score)", "setting": "Gal(b1-4)GlcNAc", "result": 0.063}, {"measurement": "glycan array binding signal (z-score)", "setting": "[8]", "result": 8.35}, {"measurement": "glycan array binding signal (z-score)", "setting": "Gal(b1-4)GlcNAc(b1-2)Man", "result": 0.271}, {"measurement": "glycan array binding signal (z-score)", "setting": "[9]", "result": 0.345}, {"measurement": "glycan array binding signal (z-score)", "setting": "[10]", "result": -1.05}, {"measurement": "glycan array binding signal (z-score)", "setting": "[11]", "result": 1.99}, {"measurement": "glycan array binding signal (z-score)", "setting": "[12]", "result": -0.493}, {"measurement": "glycan array binding signal (z-score)", "setting": "[13]", "result": 1.34}, {"measurement": "glycan array binding signal (z-score)", "setting": "[14]", "result": -1.28}, {"measurement": "glycan array binding signal (z-score)", "setting": "[15]", "result": 0.029}, {"measurement": "glycan array binding signal (z-score)", "setting": "[16]", "result": -0.61}, {"measurement": "glycan array binding signal (z-score)", "setting": "[17]", "result": 0.647}, {"measurement": "glycan array binding signal (z-score)", "setting": "[18]", "result": -0.236}, {"measurement": "glycan array binding signal (z-score)", "setting": "[19]", "result": -0.503}, {"measurement": "glycan array binding signal (z-score)", "setting": "[20]", "result": 0.388}, {"measurement": "glycan array binding signal (z-score)", "setting": "[21]", "result": -0.349}, {"measurement": "glycan array binding signal (z-score)", "setting": "[22]", "result": -0.12}, {"measurement": "glycan array binding signal (z-score)", "setting": "[23]", "result": 3.53}, {"measurement": "glycan array binding signal (z-score)", "setting": "[24]", "result": 0.711}, {"measurement": "glycan array binding signal (z-score)", "setting": "[25]", "result": 1.7}, {"measurement": "glycan array binding signal (z-score)", "setting": "[26]", "result": -0.454}, {"measurement": "glycan array binding signal (z-score)", "setting": "[27]", "result": -1.08}, {"measurement": "glycan array binding signal (z-score)", "setting": "[28]", "result": -0.401}, {"measurement": "glycan array binding signal (z-score)", "setting": "[29]", "result": -0.13}, {"measurement": "glycan array binding signal (z-score)", "setting": "[30]", "result": 0.261}, {"measurement": "glycan array binding signal (z-score)", "setting": "[31]", "result": 0.076}, {"measurement": "glycan array binding signal (z-score)", "setting": "[32]", "result": 0.982}, {"measurement": "glycan array binding signal (z-score)", "setting": "[33]", "result": -0.17}]}
